# Test results taken from the supplement of paper PMC9744312.
# Counter-ions that a name gives are not always drawn. The list shows a part of the results. The data scatter; read single values as rough.
# Test system: Peyronie's disease tunica albuginea primary fibroblasts
# Experiment: cell viability (DRAQ5 nuclear stain) relative to TGF-beta1-only control; higher = more viable cells
# Conditions: 10 µM; TGF-beta1 10 ng/mL; 72 h
row,SMILES,cell viability [%]
1,CC(=O)N1CCN(c2ccc(OCC3COC(Cn4ccnc4)(c4ccc(Cl)cc4Cl)O3)cc2)CC1 (configuration not stated) [Ketoconazole],96.2
2,"Cc1[nH]c(/C=C2\C(=O)Nc3ccccc32)c(C)c1CCC(=O)O [Orantinib (TSU-68, SU6668)]",81.9
3,Cc1nc(C)c(Cl)c(O)c1Cl [Clopidol],93.3
4,O=C(O)P(=O)(O)O [Foscarnet Sodium],83.4
5,NS(=O)(=O)c1ccc(C(=O)O)cc1 [Carzenide],79.4
6,CO[C@H]1C[C@@H]2CC[C@@H](C)[C@@](O)(O2)C(=O)C(=O)N2CCCC[C@H]2C(=O)O[C@H]([C@H](C)C[C@@H]2CC[C@@H](O)[C@H](OC)C2)CC(=O)[C@H](C)/C=C(\C)[C@@H](O)[C@@H](OC)C(=O)[C@H](C)C[C@H](C)/C=C/C=C/C=C/1C [Rapamycin (Sirolimus)],74.5
7,CCC(=O)NS(=O)(=O)c1ccc(-c2c(-c3ccccc3)noc2C)cc1 [Parecoxib Sodium],110
8,CCC(=O)NS(=O)(=O)c1ccc(-c2c(-c3ccccc3)noc2C)cc1 [Parecoxib],87.5
9,CNC[C@H](O)c1cccc(O)c1 [Phenylephrine HCl],96.4
10,N[C@@H]1CN(c2c(F)cc3c(=O)c(C(=O)O)cn([C@@H]4C[C@@H]4F)c3c2Cl)CC12CC2 [Sitafloxacin Hydrate],91.8
11,COC(=O)c1ccc2c(c1)NC(=O)/C2=C(\Nc1ccc(N(C)C(=O)CN2CCN(C)CC2)cc1)c1ccccc1 [Nintedanib (BIBF 1120)],76.9
12,CC(C)(CO)[C@@H](O)C(=O)NCCCO [D panthenol],96
13,CC(C)C[C@H](NC(=O)CNC(=O)c1cc(Cl)ccc1Cl)B(O)O [Ixazomib (MLN2238)],34.1
14,COC(=O)[C@H]1[C@H]2C[C@@H]3c4[nH]c5cc(OC)ccc5c4CCN3C[C@H]2C[C@@H](OC(=O)c2cc(OC)c(OC)c(OC)c2)[C@@H]1OC [Reserpine],84.3
15,O=c1c(-c2ccc(O)cc2)coc2cc(O)cc(O)c12 [Genistein],80.1
16,N[C@H](Cc1ccccc1)C(=O)O [D-Phenylalanine],110
17,CS(=O)(=O)Nc1cc2occ(NC=O)c(=O)c2cc1Oc1ccccc1 [Iguratimod],103
18,CC(C)OC(=O)C(C(=O)OC(C)C)=C1SC=CS1 [Malotilate],90.6
19,c1ccc2c(c1)CCCC2C1=NCCN1 (configuration not stated) [Tetrahydrozoline HCl],90.6
20,COc1cccc(CCc2ccccc2OCC(CN(C)C)OC(=O)CCC(=O)O)c1 (configuration not stated) [Sarpogrelate hydrochloride],79.4
21,C[C@@H](O)[C@H]1C(=O)N2C(C(=O)O)=C(SCCNC=N)C[C@H]12 [Imipenem],81.9
22,N[C@@H](CS)C(=O)O [L-Cysteine HCl],81.3
23,CCCCCN(C)CCC(O)(P(=O)(O)O)P(=O)(O)O [Ibandronate sodium],87.2
24,C[Se]CC[C@H](N)C(=O)O [L-SelenoMethionine],88.5

row,SMILES,cell viability [%]
1,C1N2CN3CN1CN(C2)C3 [Methenamine],95.3
2,CCCOC(C(=O)OC1CCN(C)CC1)(c1ccccc1)c1ccccc1 [Propiverine hydrochloride],94.6
3,CCOCCn1c(C2CCN(CCc3ccc(C(C)(C)C(=O)O)cc3)CC2)nc2ccccc21 [Bilastine],94.2
4,C[C@@H](O)[C@H]1C(=O)N2C(C(=O)O)=C(S[C@@H]3CN[C@H](C(=O)Nc4cccc(C(=O)O)c4)C3)[C@H](C)[C@H]12 [Ertapenem sodium],95.1
5,CCCCCOc1ccc(-c2ccc(-c3ccc(C(=O)N[C@H]4C[C@@H](O)[C@@H](O)NC(=O)[C@@H]5[C@@H](O)[C@@H](C)CN5C(=O)[C@H]([C@@H](C)O)NC(=O)[C@H]([C@H](O)[C@@H](O)c5ccc(O)cc5)NC(=O)[C@@H]5C[C@@H](O)CN5C(=O)[C@H]([C@@H](C)O)NC4=O)cc3)cc2)cc1,64.9
6,CC(C)c1nc(N(C)S(C)(=O)=O)nc(-c2ccc(F)cc2)c1/C=C/[C@@H](O)C[C@@H](O)CC(=O)O [Rosuvastatin Calcium],85.3
7,CC(C)c1nc(N(C)S(C)(=O)=O)nc(-c2ccc(F)cc2)c1/C=C/[C@@H](O)C[C@@H](O)CC(=O)O [Rosuvastatin],79.9
8,Nc1ccc(S(=O)(=O)NC(=O)c2ccccc2)cc1 [Sulfabenzamide],69.1
9,C[N+](C)(C)CCOP(=O)(O)OP(=O)([O-])OC[C@H]1O[C@@H](n2ccc(N)nc2=O)[C@H](O)[C@@H]1O [Citicoline sodium],84.1
10,CCN(CC)CCCC(C)Nc1ccnc2cc(Cl)ccc12 (configuration not stated) [Chloroquine Phosphate],99.6
11,CC(C)=CCOc1ccc(/C=C/C(=O)c2ccc(OCC=C(C)C)cc2OCC(=O)O)cc1 [Sofalcone],87.3
12,Oc1ccc(C2CNCCc3c2cc(O)c(O)c3Cl)cc1 (configuration not stated) [Fenoldopam mesylate],75
13,CC(C(=O)O)c1cccc(Oc2ccccc2)c1 (configuration not stated) [Fenoprofen calcium hydrate],87
14,CC(C(=O)O)c1cccc(Oc2ccccc2)c1 (configuration not stated) [Fenoprofen Calcium],86.2
15,CCCc1ncc(C[n+]2ccccc2C)c(N)n1 [Amprolium HCl],98.6
16,CO/N=C(\C(=O)N[C@@H]1C(=O)N2C(C(=O)O)=CCS[C@H]12)c1csc(N)n1 [Ceftizoxime],97.2
17,OC[C@H]1OC(O)[C@H](O)[C@@H](O)[C@@H]1O (some centres not stated) [Dextrose],91.4
18,OC[C@@H](O)[C@@H](O)[C@H](O)[C@H](O)CO [D-Mannitol],95.2
19,CCn1cc(C(=O)O)c(=O)c2cc(F)c(N3CCNCC3)nc21 [Enoxacin],95.4
20,CCn1cc(C(=O)O)c(=O)c2cc(F)c(N3CCNCC3)nc21 [Enoxacin Sesquihydrate],101
21,CC(=O)OCC(=O)NCCCOc1cccc(CN2CCCCC2)c1 [Roxatidine Acetate HCl],98.2
22,C[C@H](NCc1ccc(OCc2cccc(F)c2)cc1)C(N)=O [Safinamide Mesylate],94.6
23,C[C@H](NCc1ccc(OCc2cccc(F)c2)cc1)C(N)=O [Safinamide],93.4

# Some of the entries above, set out differently.
row	SMILES	cell viability [%]
12	Oc1ccc(C2CNCCc3c2cc(O)c(O)c3Cl)cc1 (configuration not stated) [Fenoldopam mesylate]	75
13	CC(C(=O)O)c1cccc(Oc2ccccc2)c1 (configuration not stated) [Fenoprofen calcium hydrate]	87
